Values from PubChem BioAssay AID652243 (Drosophila RNAi Screening Center, 2013)

Assay: 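Knock-downs that decrease or increase androgen receptor reporter signal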 (primary screen)
System: Drosophila S2R+ cells
Knock-down reagent: long dsRNA against Drosophila genes
Duration: 72 h (48 h, then 24 h hormone)
Challenge: synthetic androgen R1881 at 10 nM for 24 h
Measured: 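Per-well raw luminescence of the androgen-driven firefly reporter and of the Renilla control, two replicates each, without normalisation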
Scale: firefly reporter light: higher = more light from androgen-responsive reporter; Renilla control light: higher = more constitutive control signal (cell number, transfection)
Rule for the call: 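Across duplicate plates, a knock-down whose log firefly/Renilla ratio shifted a set fold down or up from the GFP/LacZ control mean was a hit; the downward cut appears as both 1.5 and 3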
Calls: active = hit: reporter lowered or raised; inactive = no hit
The deposit covers about 24,000 reagents; below is an unselected part of those that have a named target and a result. In the full data, 246 (1%) were called active. 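Plates not normalised; calls are printed but the firefly/Renilla ratio behind them is not deposited; fold cut for lowering reported inconsistently.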 Raw values are not corrected between plates. Reagents against one gene are numbered here. A plus sign joins genes that one reagent is predicted to hit. Not given: the amount of reagent.

Gene	reagent	firefly reporter light, replicate 1	firefly reporter light, replicate 2	Renilla control light, replicate 1	Renilla control light, replicate 2	call
Nacalpha (GeneID 36409)	1	5.17e5	4.93e5	1.37e6	1.70e6	inactive
Nacalpha (GeneID 36409)	2	4.39e5	3.87e5	6.88e5	6.13e5	inactive
ced-6 (GeneID 35971)	1	5.52e5	7.04e5	1.14e6	1.20e6	inactive
ced-6 (GeneID 35971)	2	4.10e5	5.53e5	6.93e5	6.93e5	inactive
CG6567 + CG4565	1	1.03e5	88274	1.94e6	1.57e6	inactive
Snx1 (GeneID 33560)	1	1.02e5	1.46e5	9.08e5	9.45e5	inactive
CtsK2 (GeneID 36973)	1	8.84e5	1.11e6	1.22e6	1.08e6	inactive
CtsK2 (GeneID 36973)	2	5.56e5	4.56e5	9.97e5	9.46e5	inactive
Rheb (GeneID 117332)	1	60974	66973	3.03e5	2.58e5	inactive
sut4 (GeneID 36055)	1	1.12e6	8.91e5	1.55e6	1.82e6	inactive
sut4 (GeneID 36055)	2	1.71e5	2.96e5	6.62e5	6.65e5	inactive
CG40583 (retired record) (GeneID 5740259)	1	7.91e5	7.94e5	2.14e6	1.68e6	inactive
EndoGI (GeneID 34953)	1	1.29e5	1.48e5	1.45e6	1.93e6	inactive
Atg13 (GeneID 40998)	1	1.53e5	1.36e5	2.89e6	2.40e6	inactive
Doc1 (GeneID 39039)	1	2.54e5	3.11e5	3.22e6	2.52e6	inactive
Doc1 (GeneID 39039)	2	3.66e5	4.50e5	9.55e5	8.00e5	inactive
CG8611 (GeneID 32725)	1	1.20e5	1.08e5	5.71e5	7.59e5	inactive
CG8611 (GeneID 32725)	2	8.42e5	7.69e5	9.21e5	1.01e6	inactive
Tgt (GeneID 33307)	1	4.42e5	7.72e5	1.66e6	1.63e6	inactive
Lip2 (GeneID 43980)	1	2.24e5	2.63e5	1.66e6	1.66e6	inactive
Lip2 (GeneID 43980)	2	4.44e5	3.05e5	2.31e6	1.76e6	inactive
CG14431 (GeneID 31639)	1	92671	1.21e5	2.91e6	2.54e6	inactive
CG14431 (GeneID 31639)	2	7.67e5	8.32e5	1.10e6	1.16e6	inactive
tefu (GeneID 41839)	1	1.33e5	77601	1.68e6	1.37e6	inactive
tefu (GeneID 41839)	2					inactive
tefu (GeneID 41839)	3					inactive
Lipt2 (GeneID 40565)	1	4.16e5	4.47e5	3.02e6	2.94e6	inactive
Lipt2 (GeneID 40565)	2	8.92e5	6.66e5	1.42e6	1.55e6	inactive
CG33643 (GeneID 3772011)	1	7.38e5	7.44e5	1.99e6	1.91e6	inactive
QIL1 (GeneID 39948)	1	3.36e5	1.70e5	1.97e6	1.19e6	inactive
ine (GeneID 33659)	1	4.73e5	7.59e5	9.15e5	1.29e6	inactive
ine (GeneID 33659)	2	5.10e5	3.37e5	1.58e6	1.34e6	inactive
CR12842 (GeneID 12798079)	1	3.88e5	4.41e5	1.81e6	1.45e6	inactive
CR12842 (GeneID 12798079)	2	1.42e6	1.22e6	9.67e5	1.19e6	inactive
CG32235 (GeneID 251916)	1	6.84e5	8.00e5	1.03e6	1.44e6	inactive
Pkd2 (GeneID 34651)	1	1.88e5	1.92e5	8.00e5	9.80e5	inactive
Pkd2 (GeneID 34651)	2	3.40e5	3.40e5	6.17e5	8.55e5	inactive
Bre1 (GeneID 38652)	1	9.66e5	6.11e5	1.34e6	1.14e6	inactive
CG17475 (GeneID 42069)	1	1.72e5	1.27e5	1.64e6	1.87e6	inactive
CG17475 (GeneID 42069)	2	6.13e5	4.59e5	6.61e5	7.48e5	inactive
fit (GeneID 42578)	1	3.14e5	2.84e5	3.07e6	3.50e6	inactive
Scp2 (GeneID 42015)	1	2.16e5	2.45e5	4.20e5	4.14e5	inactive
Scp2 (GeneID 42015)	2	1.57e5	1.33e5	2.45e6	1.73e6	inactive
CG11231 (retired record) (GeneID 43845)	1	2.70e5	2.52e5	3.07e6	2.14e6	inactive
CG9702 (GeneID 43634)	1	1.89e5	1.47e5	2.68e6	2.63e6	inactive
CG9915 (GeneID 32593)	1	2.98e5	2.50e5	3.35e6	2.98e6	inactive
CG9915 (GeneID 32593)	2	5.97e5	6.25e5	2.69e6	2.49e6	inactive
CG9915 (GeneID 32593)	3	2.45e5	2.11e5	6.69e5	6.78e5	inactive
Est-Q (GeneID 40381)	1	35968	49600	3.20e5	2.43e5	inactive
scpr-A + scpr-C	1	99609	1.07e5	2.07e6	2.21e6	inactive
PIG-S (GeneID 42979)	1	1.30e5	1.20e5	4.94e5	4.55e5	inactive
PIG-S (GeneID 42979)	2	1.90e5	2.73e5	2.14e6	2.14e6	inactive
PIG-S (GeneID 42979)	3	1.75e5	1.57e5	1.14e6	1.18e6	inactive
CG12384 (GeneID 36224)	1	6.16e5	7.60e5	1.73e6	2.05e6	inactive
CG12384 (GeneID 36224)	2	2.78e5	3.16e5	1.29e6	1.55e6	inactive
mei-41 (GeneID 32608)	1	2.47e5	2.24e5	1.67e6	1.37e6	inactive
mei-41 (GeneID 32608)	2					inactive
mei-41 (GeneID 32608)	3					inactive
Lnpk (GeneID 35842)	1	7.03e5	8.49e5	1.18e6	1.68e6	inactive
Lnpk (GeneID 35842)	2	9.12e5	1.06e6	1.19e6	1.61e6	inactive
CG2790 (GeneID 37992)	1	7.33e5	7.21e5	1.07e6	1.17e6	inactive
CG2790 (GeneID 37992)	2	4.02e5	3.74e5	1.18e6	1.03e6	inactive
CG2790 (GeneID 37992)	3	6.08e5	7.39e5	1.59e6	1.95e6	inactive
CG15382 (GeneID 33391)	1	59824	71494	4.54e5	5.81e5	inactive
CG15382 (GeneID 33391)	2	4.85e5	4.22e5	6.20e5	5.42e5	inactive
vir (GeneID 47869)	1	1.25e5	1.31e5	1.02e6	9.13e5	inactive
vir (GeneID 47869)	2	2.03e5	1.69e5	4.48e5	4.34e5	inactive
CG12655 (GeneID 33004)	1	86561	91527	97430	1.12e5	inactive
Cmpk (GeneID 43165)	1	1.02e5	1.04e5	8.73e5	8.55e5	inactive
Cmpk (GeneID 43165)	2					inactive
CG14684 (GeneID 41281)	1	1.98e5	2.14e5	2.38e6	3.03e6	inactive
CG43326 + CG43325	1	2.90e5	2.64e5	2.22e6	1.54e6	inactive
CG17739 (GeneID 36333)	1	1.13e6	1.21e6	1.98e6	1.87e6	inactive
CG17739 (GeneID 36333)	2	2.32e5	2.20e5	5.75e5	5.92e5	inactive
